# Experimental data from the supplement of paper PMC10373366.
# Structures can show the parent of a compound that is named as a salt. Some of the results follow. Many values rest on one well or one pass, so single values are uncertain.
# Tested on: patient-derived ovarian cancer cells (PDC)
# Experiment: cell growth inhibition ratio vs untreated control (CCK8); higher = stronger inhibition of cell viability
# Conditions: 10 µM; 48 h
# Procedure: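 Natural product library (Topscience) screened at 10 µM final concentration for 48 h on ovarian cancer A2780 cells and patient-derived ovarian cancer cells (PDC) in 96-well plates; viability read by CCK8 and reported as inhibition ratio (%) relative to untreated control. Single-dose primary screen.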
row,SMILES,cell growth inhibition ratio
1,CC(=O)c1c(O)c(C)c(O)c2c1OC1=CC(=O)C(C(C)=O)C(=O)C12C (stereo not drawn) [Usnic Acid],0.96%
2,CCCCCCCCCC[C@H](C(=O)O)[C@]1(C(=O)O)CCC(=O)O1 [Spiculisporic Acid],5.93%
3,CC(=O)OC1CC2CCC1(C)C2(C)C (stereo not drawn) [Bornyl acetate],-2.26%
4,C[C@@H]1O[C@@H](O[C@H]2[C@H](O[C@H]3CC[C@@]4(C)[C@@H](CC[C@]5(C)[C@@H]4CC=C4[C@@H]6CC(C)(C)CC[C@]6(C(=O)O[C@@H]6O[C@H](CO[C@@H]7O[C@H](CO)[C@@H](O)[C@H](O)[C@H]7O)[C@@H](O)[C@H](O)[C@H]6O)CC[C@]45C)[C@]3(C)CO)OC[C@H](O)[C@@H]2O)[C@H](O)[C@H](O[C@@H]2O[C@H](CO)[C@@H](O)[C@H](O)[C@H]2O)[C@H]1O [macranthoidin A],14.5%
5,C[C@]12C[C@H](O)[C@H]3[C@@H](CCC4=CC(=O)CC[C@@]43C)[C@@H]1CC[C@@H]2C(=O)CO [Corticosterone],0.986%
6,O=c1cc(-c2ccccc2)oc2ccccc12 [Flavone],-21%
7,C=C(C)[C@@H]1CC[C@]2(C=O)CC[C@]3(C)[C@H](CC[C@@H]4[C@@]5(C)CC[C@H](O)C(C)(C)[C@@H]5CC[C@]43C)[C@@H]12 [Betulinaldehyde],15.4%
8,CC(C)=CCC[C@](C)(O[C@@H]1O[C@H](CO)[C@@H](O)[C@H](O)[C@H]1O)[C@H]1CC[C@]2(C)[C@@H]1[C@H](O)C[C@@H]1[C@@]3(C)CC[C@H](O[C@@H]4O[C@H](CO)[C@@H](O)[C@H](O)[C@H]4O)C(C)(C)[C@@H]3CC[C@]12C [Ginsenoside F2],-13.2%
9,"CC(=O)c1ccc(O)cc1O [2,4-Dihydroxyacetophenone]",8.14%
10,OC[C@H]1O[C@@H](O[C@@H]2[C@@H](CO)OC(O)(CO)[C@H]2O)[C@H](O)[C@@H](O)[C@H]1O (mixture of isomers) [Lactulose],-2.81%
11,O=c1ccc2ccc(O)c(O)c2o1 [Daphnetin],-0.387%
12,N[C@@H]1CONC1=O [D-Cycloserine],-3.36%
13,C[C@]12CCC(=O)C=C1CC[C@@H]1[C@@H]2C(=O)C[C@@]2(C)[C@H]1CC[C@]2(O)C(=O)CO [Cortisone],-12.3%
14,CCCCCCCCCC(=O)N[C@H]1[C@H](Oc2c3cc4cc2Oc2ccc(cc2Cl)[C@@H](O[C@@H]2O[C@H](CO)[C@@H](O)[C@H](O)[C@H]2NC(C)=O)[C@@H]2NC(=O)[C@H](NC(=O)[C@@H]4NC(=O)[C@H]4NC(=O)[C@@H](Cc5ccc(c(Cl)c5)O3)NC(=O)[C@H](N)c3ccc(O)c(c3)Oc3cc(O)cc4c3)c3ccc(O)c(c3)-c3c(OC4O[C@H](CO)[C@@H](O)[C@H](O)[C@@H]4O)cc(O)cc3[C@@H](C(=O)O)NC2=O)O[C@H](CO)[C@@H](O)[C@@H]1O (stereo partly drawn) [Teicoplanin],3.93%
15,CC(=O)OC/C=C(C)/C=C/C=C(C)/C=C/C1=C(C)CCCC1(C)C [Retinyl acetate],14.9%
16,COc1ccc2c(c1OC)C(=O)O[C@@H]2[C@H]1c2c(cc3c(c2OC)OCO3)CCN1C [Noscapine hydrochloride],7.79%
17,O=C(O)CCCC[C@@H]1CCSS1 [Thioctic acid],0.778%
18,CO[C@H]1O[C@@H]2O[C@@]3(C)CC[C@H]4[C@H](C)CC[C@@H]([C@H]1C)[C@@]24OO3 [Artemether],-8.05%

# Part of the list above, set out differently.
row	SMILES	cell growth inhibition ratio
3	CC(=O)OC1CC2CCC1(C)C2(C)C (stereo not drawn) [Bornyl acetate]	-2.26%
16	COc1ccc2c(c1OC)C(=O)O[C@@H]2[C@H]1c2c(cc3c(c2OC)OCO3)CCN1C [Noscapine hydrochloride]	7.79%
